2 substances from PMC7946307 can be followed below.

These are yes or no findings as the source states them, for the method shown. Binding seen in cells or lysates may run through a third protein. Binding calls can cover weak binding; strength is not graded here.

Assay [1] concerns the target T1, TDRD1, endogenous in mouse testis (mouse (endogenous in testis)) (UniProt Q99MV1).
T1 sequence: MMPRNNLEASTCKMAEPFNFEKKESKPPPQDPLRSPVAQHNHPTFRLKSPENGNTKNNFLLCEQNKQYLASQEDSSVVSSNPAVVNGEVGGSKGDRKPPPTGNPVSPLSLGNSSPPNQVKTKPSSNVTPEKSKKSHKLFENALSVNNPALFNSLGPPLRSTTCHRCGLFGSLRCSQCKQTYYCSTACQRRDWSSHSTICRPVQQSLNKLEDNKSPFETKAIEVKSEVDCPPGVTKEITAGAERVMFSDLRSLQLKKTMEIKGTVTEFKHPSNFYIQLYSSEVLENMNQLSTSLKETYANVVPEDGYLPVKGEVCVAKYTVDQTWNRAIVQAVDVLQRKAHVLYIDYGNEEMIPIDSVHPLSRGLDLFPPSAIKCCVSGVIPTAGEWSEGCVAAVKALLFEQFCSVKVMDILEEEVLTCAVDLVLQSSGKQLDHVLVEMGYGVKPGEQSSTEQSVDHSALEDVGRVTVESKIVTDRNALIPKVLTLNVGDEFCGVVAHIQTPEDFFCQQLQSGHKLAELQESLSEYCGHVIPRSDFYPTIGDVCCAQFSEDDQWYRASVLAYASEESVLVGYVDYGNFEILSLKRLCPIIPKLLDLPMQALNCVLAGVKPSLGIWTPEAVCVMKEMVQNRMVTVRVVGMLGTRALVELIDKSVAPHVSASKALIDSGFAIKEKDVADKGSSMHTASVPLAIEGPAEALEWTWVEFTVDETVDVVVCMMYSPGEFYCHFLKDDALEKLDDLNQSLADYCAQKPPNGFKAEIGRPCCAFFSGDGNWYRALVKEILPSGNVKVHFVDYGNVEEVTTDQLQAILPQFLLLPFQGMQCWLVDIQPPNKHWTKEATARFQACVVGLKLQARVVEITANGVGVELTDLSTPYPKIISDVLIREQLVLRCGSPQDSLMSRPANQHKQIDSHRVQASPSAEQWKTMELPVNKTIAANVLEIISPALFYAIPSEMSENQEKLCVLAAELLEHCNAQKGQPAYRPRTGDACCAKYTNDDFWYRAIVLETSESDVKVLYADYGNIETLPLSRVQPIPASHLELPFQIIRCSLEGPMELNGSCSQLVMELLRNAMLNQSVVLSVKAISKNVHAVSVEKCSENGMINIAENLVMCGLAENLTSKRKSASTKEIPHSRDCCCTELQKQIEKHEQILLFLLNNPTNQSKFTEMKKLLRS
In words: co-IP; endogenous proteins from 2 pairs of P21 or P28 mouse testes (control or Mov10l1^fl/yama Ngn3-Cre) lysed in RIPA buffer (10 mM Tris pH 8.0, 140 mM NaCl, 1% Triton X-100, 0.1% deoxycholate, 0.1% SDS, 1 mM EDTA); 1-2 ug primary antibody, protein G Dynabeads, 4 washes in RIPA; immunoblot.

Assay [2] addresses T2, PLD6, endogenous in mouse testis (mouse (endogenous in testis)) (UniProt Q5SWZ9).
T2 sequence: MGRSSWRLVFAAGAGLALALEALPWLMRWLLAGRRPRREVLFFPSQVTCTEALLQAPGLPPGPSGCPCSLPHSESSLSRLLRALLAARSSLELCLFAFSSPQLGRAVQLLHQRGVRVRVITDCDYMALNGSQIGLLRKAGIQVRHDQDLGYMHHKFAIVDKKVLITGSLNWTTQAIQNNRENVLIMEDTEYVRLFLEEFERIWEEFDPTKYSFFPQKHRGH
Described as above.

On to “MOV10L1 (wild type, endogenous in mouse testis)”, for which the binding result in assay [1] and in assay [2] was “binds” throughout.
Turning to “MOV10L1^V229E (yama mutant protein, endogenous in Mov10l1^fl/yama Ngn3-Cre mouse testis)”, the binding entry in assay [2] is listed as “no binding”.
